Experimental data: PubChem BioAssay AID1224828 (NIAID, 2016)
Shown is an unselected part of about 17,000 reagents tested. Over the whole deposit, 762 (4.5%) are marked active. 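Active calls include both raised and lowered p65 entry, mostly lowered; wells with fewer than 50 cells lack a z-score.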 Raw values vary from plate to plate and are shown uncorrected. The numbers tell different reagents against one gene apart.

- Aim: 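Knock-downs that increase or decrease LPS-induced p65 nuclear translocation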 (primary screen)
- System: mouse RAW264.7 G9 macrophage reporter cells (GFP-p65, Tnf promoter-mCherry)
- Reagents: siRNA pool against mouse genes, 100 nM
- Timing: 2 days siRNA transfection, then 40 min LPS before fixation
- Challenge: LPS (Salmonella minnesota R595) at 10 ng/ml
- Measured: 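Microscopy ratio of nuclear to perinuclear-ring GFP-p65 signal, scaled to the plate median; gene score is the average of two replicate robust z-scores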
- Scale: p65 translocation robust z-score: higher = more nuclear NF-kappaB p65 after LPS than the plate median; nuclear/cytoplasmic p65 ratio: higher = more nuclear NF-kappaB p65
- Call rule: 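Active if robust z is above 3.3 (negative regulators) or below -1.56, the Tlr4 control median (positive regulators); activity score 50 or more; control wells not called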
- Meaning of the calls: active = hit (p65 shift raised or lowered); inactive = no clear change

The opening 5 entries, to show the layout:
gene symbol	reagent no.	p65 translocation robust z-score	nuclear/cytoplasmic p65 ratio, rep 1	nuclear/cytoplasmic p65 ratio, rep 2	low cell count flag	outcome
Tmsb15l	1	0.37	1.29	1.36	enough cells to score	inactive
Rnpc3	1		1.08	1.18	fewer than 50 cells per well; well left out of scoring	inactive
Cdca8	1		1.35	1.5	fewer than 50 cells per well; well left out of scoring	inactive
Sdcbp	1	0.96	1.61	1.27	enough cells to score	inactive
Ifnz	1	0.59	1.83	1.61	enough cells to score	inactive

The list itself, repeating the preview:
gene symbol	reagent no.	p65 translocation robust z-score	nuclear/cytoplasmic p65 ratio, rep 1	nuclear/cytoplasmic p65 ratio, rep 2	low cell count flag	outcome
Tmsb15l	1	0.37	1.29	1.36	enough cells to score	inactive
Rnpc3	1		1.08	1.18	fewer than 50 cells per well; well left out of scoring	inactive
Cdca8	1		1.35	1.5	fewer than 50 cells per well; well left out of scoring	inactive
Sdcbp	1	0.96	1.61	1.27	enough cells to score	inactive
Ifnz	1	0.59	1.83	1.61	enough cells to score	inactive
Dcaf12	1	3.59	1.85	1.7	enough cells to score	active
Sag	1	-1	1.41	1.34	enough cells to score	inactive
Hal	1	0.15	1.34	1.5	enough cells to score	inactive
Eno2	1	0.06	1.54	1.32	enough cells to score	inactive
Nme4	1	0.1	1.52	1.39	enough cells to score	inactive
Repin1	1		1.33	1.22	fewer than 50 cells per well; well left out of scoring	inactive
Or7g18	1	0.3	1.44	1.34	enough cells to score	inactive
Or5p80	1		1.49	1.29	fewer than 50 cells per well; well left out of scoring	inactive
Zap70	1		1.44	1.25	fewer than 50 cells per well; well left out of scoring	inactive
Vmn2r122	1	-1.23	1.39	1.11	enough cells to score	inactive
Vmn2r122	2	-0.26	1.4	1.2	enough cells to score	inactive
Leng9	1	-2.18	1.25	1.13	enough cells to score	active
Zfp185	1	-0.56	1.27	1.25	enough cells to score	inactive
Armc9	1		1.08	1.16	fewer than 50 cells per well; well left out of scoring	inactive
Shq1	1	4.94	1.8	2.37	enough cells to score	active
Gna11	1	1.21	1.51	1.61	enough cells to score	inactive
Ambra1	1	-0.24	1.54	1.74	enough cells to score	inactive
Zfp653	1		1.24	1.23	fewer than 50 cells per well; well left out of scoring	inactive
Galnt11	1	-0.62	1.56	1.33	enough cells to score	inactive
Pcdh7	1	-0.95	1.36	1.25	enough cells to score	inactive
Klf3	1		1.41	1.44	fewer than 50 cells per well; well left out of scoring	inactive
Igbp1	1	-0.26	1.38	1.37	enough cells to score	inactive
Ift88	1		1.34	1.13	fewer than 50 cells per well; well left out of scoring	inactive
Cbr1	1	0.76	1.61	1.44	enough cells to score	inactive
D830050J10Rik	1	-1.47	1.33	1.51	enough cells to score	inactive
Dnajc28	1	0.22	1.51	1.24	enough cells to score	inactive
Tmtc2	1		1.39	1.25	fewer than 50 cells per well; well left out of scoring	inactive
Tmtc2	2		1.46	1.66	fewer than 50 cells per well; well left out of scoring	inactive
Arhgap25	1	0.65	1.68	1.62	enough cells to score	inactive
Apoe	1	-1.18	1.54	1.34	enough cells to score	inactive
Sds	1	-0.2	1.3	1.2	enough cells to score	inactive
Rasgrp3	1	0.03	1.49	1.33	enough cells to score	inactive
Or52d1	1	1.81	1.52	1.62	enough cells to score	inactive
Cast	1	-0.47	1.56	1.42	enough cells to score	inactive
Zc3h12d	1	0.47	1.61	1.64	enough cells to score	inactive
Nipa2	1	1.25	1.42	1.41	enough cells to score	inactive
Cpa5	1	-0.47	1.44	1.29	enough cells to score	inactive
Rtn4ip1	1	-1.23	1.21	1.12	enough cells to score	inactive
Haus2	1		1.63	1.44	fewer than 50 cells per well; well left out of scoring	inactive
U55872 (retired record)	1		1.08	1.27	fewer than 50 cells per well; well left out of scoring	inactive
Muc13	1	0.33	1.78	1.59	enough cells to score	inactive
Supt16	1	0.68	1.5	1.31	enough cells to score	inactive
Duox2	1		1.4	1.25	fewer than 50 cells per well; well left out of scoring	inactive
Tacr3	1	-0.31	1.47	1.5	enough cells to score	inactive
Tomm22	1	-0.3	1.35	1.14	enough cells to score	inactive
Tgfb1i1	1	-0.6	1.5	1.37	enough cells to score	inactive
Il10	1	0.78	1.49	1.52	enough cells to score	inactive
Vps41	1	0.32	1.4	1.29	enough cells to score	inactive
Or5p6	1	-1.59	1.29	1.53	enough cells to score	active
Oxt	1	-0.27	1.48	1.36	enough cells to score	inactive
Prpf4b	1	0.21	1.65	1.46	enough cells to score	inactive
Rassf10	1	-0.95	1.22	1.15	enough cells to score	inactive
Rbck1	1	-0.4	1.55	1.56	enough cells to score	inactive
Gdf3	1	-2.44	1.29	1.15	enough cells to score	active
